# From the supplement of paper PMC8728848
# The other results are listed elsewhere or left out.
# B1: HHL-2 (Homo sapiens), P07307 (protein)
# chain: MAKDFQDIQQLSSEENDHPFHQGEGPGTRRLNPRRGNPFLKGPPPAQPLAQRLCSMVCFSLLALSFNILLLVVICVTGSQSEGHRGAQLQAELRSLKEAFSNFSSSTLTEVQAISTHGGSVGDKITSLGAKLEKQQQDLKADHDALLFHLKHFPVDLRFVACQMELLHSNGSQRTCCPVNWVEHQGSCYWFSHSGKAWAEAEKYCQLENAHLVVINSWEEQKFIVQHTNPFNTWIGLTDSDGSWKWVDGTDYRHNYKNWAVTQPDNWHGHELGGSEDCVEVQPDGRWNDDFCLQVYRWVCEKRRNATGEVA
# How the values were obtained:
# Experiment in all cases: glycan array binding signal (z-score within array); higher = stronger binding
# Conditions in all cases: glycan notation: IUPAC condensed, linker removed
# [1] = biological target: Fuc(a1-2)Gal
# How it was run: (§1)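 Glycan array data came from 3228 arrays in the Consortium for Functional Glycomics database, and only arrays with an available protein sequence were kept. Glycan names were put into IUPAC-condensed notation, and columns mapping to the same glycan were averaged. The binding signal is a within-array Z-score, averaged across arrays of one protein sequence run at different concentrations or buffers and across linkers. A negative Z-score can be read as non-binding.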
# [2] = biological target: Fuc(a1-2)Gal(b1-3)GalNAc
# How it was run: as §1
# [3] = biological target: Fuc(a1-2)Gal(b1-3)GalNAc(b1-3)Gal
# How it was run: as §1
# [4] = biological target: Fuc(a1-2)Gal(b1-3)GalNAc(b1-3)Gal(a1-4)Gal(b1-4)Glc
# How it was run: as §1
# [5] = biological target: Fuc(a1-2)Gal(b1-3)GalNAc(b1-4)[Neu5Ac(a2-3)]Gal(b1-4)Glc
# How it was run: as §1
# [6] = biological target: Fuc(a1-2)Gal(b1-3)GlcNAc
# How it was run: as §1
# [7] = biological target: Fuc(a1-2)Gal(b1-3)GlcNAc(b1-2)Man(a1-3)[Fuc(a1-2)Gal(b1-3)GlcNAc(b1-2)Man(a1-6)]Man(b1-4)GlcNAc(b1-4)GlcNAc
# How it was run: as §1
# [8] = biological target: Fuc(a1-2)Gal(b1-3)GlcNAc(b1-3)Gal(b1-4)Glc
# How it was run: as §1
# [9] = biological target: Fuc(a1-2)Gal(b1-3)GlcNAc(b1-3)[Gal(b1-4)[Fuc(a1-3)]GlcNAc(b1-6)]Gal(b1-4)Glc
# How it was run: as §1
# [10] = biological target: Fuc(a1-2)Gal(b1-3)[Fuc(a1-4)]GlcNAc
# How it was run: as §1
# [11] = biological target: Fuc(a1-2)Gal(b1-3)[Fuc(a1-4)]GlcNAc(b1-2)Man(a1-3)[Fuc(a1-2)Gal(b1-3)[Fuc(a1-4)]GlcNAc(b1-2)Man(a1-6)]Man(b1-4)GlcNAc(b1-4)GlcNAc
# How it was run: as §1
# [12] = biological target: Fuc(a1-2)Gal(b1-4)Glc
# How it was run: as §1
# [13] = biological target: Fuc(a1-2)Gal(b1-4)Glc6S
# How it was run: as §1
# [14] = biological target: Fuc(a1-2)Gal(b1-4)GlcNAc
# How it was run: as §1
# [15] = biological target: Fuc(a1-2)Gal(b1-4)GlcNAc(b1-2)Man(a1-3)[Fuc(a1-2)Gal(b1-4)GlcNAc(b1-2)Man(a1-6)]Man(b1-4)GlcNAc(b1-4)GlcNAc
# How it was run: as §1
# [16] = biological target: Fuc(a1-2)Gal(b1-4)GlcNAc(b1-3)Gal(b1-4)GlcNAc
# How it was run: as §1
# [17] = biological target: Fuc(a1-2)Gal(b1-4)GlcNAc(b1-3)Gal(b1-4)GlcNAc(b1-3)Gal(b1-4)GlcNAc
# How it was run: as §1
# [18] = biological target: Fuc(a1-2)Gal(b1-4)GlcNAc6S
# How it was run: as §1
# [19] = biological target: Fuc(a1-2)Gal(b1-4)[Fuc(a1-3)]GlcNAc
# How it was run: as §1
# [20] = biological target: Fuc(a1-2)Gal(b1-4)[Fuc(a1-3)]GlcNAc(b1-2)Man(a1-3)[Fuc(a1-2)Gal(b1-4)[Fuc(a1-3)]GlcNAc(b1-2)Man(a1-6)]Man(b1-4)GlcNAc(b1-4)GlcNAc
# How it was run: as §1
# [21] = biological target: Fuc(a1-2)Gal(b1-4)[Fuc(a1-3)]GlcNAc(b1-3)Gal(b1-4)[Fuc(a1-3)]GlcNAc
# How it was run: as §1
# [22] = biological target: Fuc(a1-2)Gal(b1-4)[Fuc(a1-3)]GlcNAc(b1-3)Gal(b1-4)[Fuc(a1-3)]GlcNAc(b1-3)Gal(b1-4)[Fuc(a1-3)]GlcNAc
# How it was run: as §1
# [23] = biological target: Fuc(a1-2)Gal6S(b1-4)Glc
# How it was run: as §1
# [24] = biological target: Fuc(a1-2)Gal6S(b1-4)Glc6S
# How it was run: as §1
# [25] = biological target: Fuc(a1-2)Gal6S(b1-4)GlcNAc
# How it was run: as §1
# [26] = biological target: Fuc(a1-2)[Gal(a1-3)]Gal
# How it was run: as §1
# [27] = biological target: Fuc(a1-2)[Gal(a1-3)]Gal(b1-3)GlcNAc
# How it was run: as §1
# [28] = biological target: Fuc(a1-2)[Gal(a1-3)]Gal(b1-3)GlcNAc(b1-2)Man(a1-3)[Fuc(a1-2)[Gal(a1-3)]Gal(b1-3)GlcNAc(b1-2)Man(a1-6)]Man(b1-4)GlcNAc(b1-4)GlcNAc
# How it was run: as §1
# [29] = biological target: Fuc(a1-2)[Gal(a1-3)]Gal(b1-4)Glc
# How it was run: as §1
# [30] = biological target: Fuc(a1-2)[Gal(a1-3)]Gal(b1-4)GlcNAc
# How it was run: as §1
binder,measurement,setting,value
B1,glycan array binding signal (z-score),[1],1.01
same,glycan array binding signal (z-score),[2],-0.547
same,glycan array binding signal (z-score),[3],-0.188
same,glycan array binding signal (z-score),[4],-0.718
same,glycan array binding signal (z-score),[5],-0.656
same,glycan array binding signal (z-score),[6],-0.123
same,glycan array binding signal (z-score),[7],-0.497
same,glycan array binding signal (z-score),[8],0.196
same,glycan array binding signal (z-score),[9],-0.014
same,glycan array binding signal (z-score),[10],-0.44
same,glycan array binding signal (z-score),[11],-0.022
same,glycan array binding signal (z-score),[12],-0.117
same,glycan array binding signal (z-score),[13],0.875
same,glycan array binding signal (z-score),[14],-0.637
same,glycan array binding signal (z-score),[15],-0.518
same,glycan array binding signal (z-score),[16],-0.485
same,glycan array binding signal (z-score),[17],-0.382
same,glycan array binding signal (z-score),[18],-0.345
same,glycan array binding signal (z-score),[19],-0.464
same,glycan array binding signal (z-score),[20],2.08
same,glycan array binding signal (z-score),[21],-0.38
same,glycan array binding signal (z-score),[22],0.145
same,glycan array binding signal (z-score),[23],0.709
same,glycan array binding signal (z-score),[24],-0.824
same,glycan array binding signal (z-score),[25],0.464
same,glycan array binding signal (z-score),[26],-0.174
same,glycan array binding signal (z-score),[27],-0.587
same,glycan array binding signal (z-score),[28],-0.019
same,glycan array binding signal (z-score),[29],-0.529
same,glycan array binding signal (z-score),[30],-0.743

# A different layout for some results above:
binder	measurement	setting	value
B1	glycan array binding signal (z-score)	[3]	-0.188
same	glycan array binding signal (z-score)	[6]	-0.123
